This note sets out measurements from paper PMC6659669.

Chains of the proteins cited; added tags and fusions are not shown. Residues count along the entry.
UniProt P11362, residues 458-765: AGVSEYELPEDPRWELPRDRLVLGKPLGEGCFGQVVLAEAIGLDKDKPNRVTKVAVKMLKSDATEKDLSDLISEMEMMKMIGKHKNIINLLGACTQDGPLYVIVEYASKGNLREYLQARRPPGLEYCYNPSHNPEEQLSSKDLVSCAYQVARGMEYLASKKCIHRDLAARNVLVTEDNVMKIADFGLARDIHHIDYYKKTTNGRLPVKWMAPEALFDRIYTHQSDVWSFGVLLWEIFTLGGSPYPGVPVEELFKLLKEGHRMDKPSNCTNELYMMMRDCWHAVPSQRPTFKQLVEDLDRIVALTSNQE

Results are given in words; binding and its absence hold for the method and conditions named. Some results given as binding are weak or reduced against the parent protein; the word gives no strength.

In this assay the target is FGFR1c kinase domain (residues 458-765; FGFR1K) (UniProt P11362). As to the kind of experiment: cross-linking; DSP cross-linking of FGFR1K in solution (control) and in the presence of peptide NTA(Ni)-nanodiscs at lipid:peptide ratios of 1:1, 1:3 and 1:9; FGFR1K oligomer and monomer semi-quantitated; both purified.

For the substance “FGFR1c kinase domain (residues 458-765; FGFR1K) (from UniProt P11362 458-765) (domain or fragment)”, the binding entry is reported as “binds”.
